Laboratory results taken from the supplement of paper PMC9254222.
Whole data set: some 1,100 compounds, median “Wnt reporter firefly/Renilla luciferase ratio relative to plate median” near 1.1, cut for the highest 2% near 1.6. The entries are a selection whose mix differs from that of the whole data set.

Tested on: HEK293T (UBE3A T485A transfected, BAR Wnt reporter)
Experiment: Wnt reporter firefly/Renilla luciferase ratio relative to plate median (fold (linear ratio)); higher = more Wnt/beta-catenin reporter activation
Conditions: 24 h
In short: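 Chemicals were robotically dosed at 0.01–100 uM for 24 h onto HEK293T cells, starting four hours after transfection with a BAR firefly luciferase Wnt reporter, TK-Renilla and an expression plasmid. The cells had been plated at 4500 cells/well in DMEM with 10% FBS at 37°C and 5% CO2. Following a Dual-Glo luciferase readout, the firefly/Renilla ratio served as the Wnt activity measure and raw Renilla as the cell health measure, both median-centred on each plate. Each value is the mean of four biological replicates.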

Structure (SMILES)	Wnt reporter firefly/Renilla luciferase ratio (concentration: 0.1 uM)	Wnt reporter firefly/Renilla luciferase ratio (concentration: 1 uM)	Wnt reporter firefly/Renilla luciferase ratio (concentration: 10 uM)	Wnt reporter firefly/Renilla luciferase ratio (concentration: 100 uM)	Wnt reporter firefly/Renilla luciferase ratio (concentration: 0.01 uM)
CC(C)C(=O)Nc1ccc([N+](=O)[O-])c(C(F)(F)F)c1 [Flutamide]	0.956	0.799	1.13	0.325	
CCc1nc(N)nc(N)c1-c1ccc(Cl)cc1 [Pyrimethamine]	1.17	1.01	0.586	0.452	
Cc1[nH]nc2c1N=C(c1ccccc1Cl)c1cc([N+](=O)[O-])ccc1N2	1.21	1.72	104	89.3	
c1ccc2cc3ccccc3cc2c1 [Anthracene]				2.12	
O=C1CCC(C2CCCCC2)CC1 [4-Cyclohexylcyclohexanone]	1.1	1.01	1	1.33	
COC(=O)c1ccc(I)cc1S(=O)(=O)[N-]C(=O)Nc1nc(C)nc(OC)n1.[Na+] [Iodosulfuron-methyl-sodium]	0.881	1.01	1.38	1.15	1.03
CCO[Si](CCCNC(N)=O)(OCC)OCC [1-[3-(Triethoxysilyl)propyl]urea]				1.66	
N=C(N)c1ccc(OCCCCCOc2ccc(C(=N)N)cc2)cc1.O=S(=O)(O)CCO.O=S(=O)(O)CCO [Pentamidine isethionate]	1.2	0.887	0.127	1.49	
CCOC(=O)CCC(=O)OCC [Diethyl butanedioate]	1.07	1.1	1.11	1.29	
Cc1occc(=O)c1O [Maltol]	1.14	1.02	1.04	1.22	
O=C([O-])Cc1ccccc1Nc1c(Cl)cccc1Cl.[Na+] [Diclofenac sodium]	1.17	0.928	1.12	0.35	
O=C(Oc1ccccc1)c1cccc(C(=O)Oc2ccccc2)c1 [Diphenyl isophthalate]	0.923	1.1	1.05	1.54	
CC(C)CCCCCCOC(=O)c1ccc(C(=O)OCCCCCCC(C)C)c(C(=O)OCCCCCCC(C)C)c1 [Triisononyl trimellitate]	1.08	0.919	1.18	1.34	
CC(C)CCCCCCCOC(=O)CCCCC(=O)OCCCCCCCC(C)C [Diisodecyl hexanedioate]	0.994	1.02	1.21	1.27	
NCCO [Ethanolamine]				2.04	
C[C@@H](Oc1ccc(CNC(=O)c2cccnc2Oc2ccc3c(c2)OCO3)c(F)c1)C(=O)O	1.14	1.12	1.13	1.33	
Cc1c(C)c2c(c(C)c1O)CCC(C)(COc1ccc(CC3SC(=O)NC3=O)cc1)O2 (configuration not stated) [Troglitazone]	0.992	0.916	0.805	0.519	
CCCCCCCCCCC [Undecane]	1.08	1.09	1.2	1.43	
CC(N)=O [Acetamide]	1.12	0.966	1.1	1.54	
CC(=O)OCC(COC(C)=O)OC(C)=O [Triacetin]	1.37	1.12	0.909	1.39	
CC1(C)C(=O)NC(=O)N1CO [1-(Hydroxymethyl)-5,5-dimethylhydantoin]	1.14	0.992	1.12	1.59	

Five of these compounds, reformatted.

| Structure (SMILES) | Wnt reporter firefly/Renilla luciferase ratio (concentration: 0.1 uM) | Wnt reporter firefly/Renilla luciferase ratio (concentration: 1 uM) | Wnt reporter firefly/Renilla luciferase ratio (concentration: 10 uM) | Wnt reporter firefly/Renilla luciferase ratio (concentration: 100 uM) | Wnt reporter firefly/Renilla luciferase ratio (concentration: 0.01 uM) |
| --- | --- | --- | --- | --- | --- |
| c1ccc2cc3ccccc3cc2c1 [Anthracene] |  |  |  | 2.12 |  |
| CCOC(=O)CCC(=O)OCC [Diethyl butanedioate] | 1.07 | 1.1 | 1.11 | 1.29 |  |
| O=C(Oc1ccccc1)c1cccc(C(=O)Oc2ccccc2)c1 [Diphenyl isophthalate] | 0.923 | 1.1 | 1.05 | 1.54 |  |
| CC(C)CCCCCCOC(=O)c1ccc(C(=O)OCCCCCCC(C)C)c(C(=O)OCCCCCCC(C)C)c1 [Triisononyl trimellitate] | 1.08 | 0.919 | 1.18 | 1.34 |  |
| C[C@@H](Oc1ccc(CNC(=O)c2cccnc2Oc2ccc3c(c2)OCO3)c(F)c1)C(=O)O | 1.14 | 1.12 | 1.13 | 1.33 |  |

(next part)

Structure (SMILES)	Wnt reporter firefly/Renilla luciferase ratio (concentration: 0.1 uM)	Wnt reporter firefly/Renilla luciferase ratio (concentration: 1 uM)	Wnt reporter firefly/Renilla luciferase ratio (concentration: 10 uM)	Wnt reporter firefly/Renilla luciferase ratio (concentration: 100 uM)	Wnt reporter firefly/Renilla luciferase ratio (concentration: 0.01 uM)
C=CCc1ccc(O)c(OC)c1 [Eugenol]	1.02	1.13	1.19	1.55	
CN(C)CCCN(C)CCCN(C)C [2,6,10-Trimethyl-2,6,10-triazaundecane]	0.896	1.18	1.16	1.28	
Oc1ccc2c(c1)-c1ccccc1C2 [3-Hydroxyfluorene]	1.16	1.43	1.3	0.367	
CCCCCCCCN(C)CCCCCCCC [N-Methyldioctylamine]	1.16	1	0.755	0.896	
CCCCOC(=O)C(C)Oc1ccc(Oc2ccc(C(F)(F)F)cn2)cc1 (configuration not stated) [Fluazifop-butyl]	1.71	1.15	1.54	1.13	1.15
CCCCCCC(C)OC(=O)COc1nc(F)c(Cl)c(N)c1Cl (configuration not stated) [Fluroxypyr-meptyl]	0.966	1.05	1.01	1.2	1.21
CCN(CC)C(=O)c1cc(S(=O)(=O)Cc2ccccc2)c(N2CCC(c3ccccc3)CC2)cc1N(CC)CCN(C)C.O=C(O)C(F)(F)F [HMR1171 trifluoroacetate (1:1)]	1.09	0.921	1.06	0.497	
c1cc(-c2ccncc2)ccn1 [4,4'-Bipyridine]	1.07	1.26	1.19	1.2	
OB(O)O [Boric acid]	1.15	1.06	1.24	1.26	1.27
O=C(NS(=O)(=O)/C=C/c1cccs1)c1ccc(F)cc1Br	1.13	1.12	0.456	0.251	
NC(CCCP(=O)(O)O)C(=O)O (racemic)	1.19	0.925	0.918	1.69	1.35
C/C=C/C=C/C(=O)O [Sorbic acid]	1.17	0.871	0.819	0.845	
CCCCCCCCC(=O)O [Nonanoic acid]	1.38	1.02	1.21	1.18	
CC[C@H]1OC(=O)[C@H](C)[C@@H](O[C@H]2C[C@@](C)(OC)[C@@H](O)[C@H](C)O2)[C@H](C)[C@@H](O[C@@H]2O[C@H](C)C[C@H](N(C)C)[C@H]2O)[C@](C)(O)C[C@@H](C)C(=O)[C@H](C)[C@@H](O)[C@]1(C)O [Erythromycin]	1.02	0.992	0.807	0.664	
CN1CCCC1=O [N-Methyl-2-pyrrolidone]	1.07	0.982	1.13	1.03	
O=C(c1ccccc1)c1ccccc1 [Benzophenone]	0.976	0.98	1.01	1.04	
O=C(O)Cn1c(=O)n(Cc2ccc(Br)cc2F)c(=O)c2ccc(Cl)cc21 [Zenarestat]	0.915	0.885	1.21	1.43	
C#C[C@]1(O)CC[C@H]2[C@@H]3CCc4cc(O)ccc4[C@H]3CC[C@@]21C [17alpha-Ethinylestradiol]	1.06	0.888	1.12	0.42	
CCOCCO [2-Ethoxyethanol]	1.04	1.01	1.18	1.25	
Nc1nc(Cl)nc2c1ncn2[C@H]1C[C@H](O)[C@@H](CO)O1 [Cladribine]	0.945	0.885	0.18		
O=C(Nc1ccc(Cl)cc1)Nc1ccc(Cl)c(Cl)c1 [Triclocarban]	0.857	1.02	0.454		

Structure (SMILES)	Wnt reporter firefly/Renilla luciferase ratio (concentration: 0.1 uM)	Wnt reporter firefly/Renilla luciferase ratio (concentration: 1 uM)	Wnt reporter firefly/Renilla luciferase ratio (concentration: 10 uM)	Wnt reporter firefly/Renilla luciferase ratio (concentration: 100 uM)	Wnt reporter firefly/Renilla luciferase ratio (concentration: 0.01 uM)
O=C(CCCCCCC(=O)Nc1ccccc1)NO [Vorinostat (SAHA)]			3.08		
c1ccc2ncccc2c1 [Quinoline]	0.857	1.13	1.43	1.26	
CCCCCCCCCCCCCO [1-Tridecanol]	1	1.14	1.01	1.26	
Cc1occc1C(=O)Nc1ccc(C(=O)N2CCC(F)(F)/C(=C\C(=O)N3CCC(N4CCCCC4)CC3)c3ccccc32)cc1.Cc1occc1C(=O)Nc1ccc(C(=O)N2CCC(F)(F)/C(=C\C(=O)N3CCC(N4CCCCC4)CC3)c3ccccc32)cc1.O=C(O)/C=C/C(=O)O	1.22	0.982	0.94		
Cc1cc(C)c(O)c(C)c1 [2,4,6-Trimethylphenol]	0.78	1	1.02	1.53	
Cc1nc(-c2ccccn2)ncc1C(=O)Nn1cc(C)c2cc(F)ccc21	1.12	1.2	1.01	1.13	
CCCC(=O)OCC [Ethyl butyrate]	0.661	0.955	1	0.983	
N#CSCSc1nc2ccccc2s1 [2-(Thiocyanomethylthio)benzothiazole]	0.88	1.09	1.06		0.895
Oc1cc2ccccc2c2ccccc12 [9-Phenanthrol]	0.998	0.862	1.05		
Oc1ccc2ccccc2c1/N=N/c1ccccc1 [C.I. Solvent Yellow 14]	1.12	1.2	1.14	1.37	
C#C[C@]1(O)CC[C@H]2[C@@H]3CCC4=CC(=O)CC[C@@H]4[C@H]3CC[C@@]21C [Norethindrone]	1.16	1.08	1.09	0.505	
COc1ccc([N+](=O)[O-])cc1N [2-Methoxy-5-nitroaniline]	0.964	0.988	1.04	1.14	
CN(C)[C@@H]1C(O)=C(C(N)=O)C(=O)[C@@]2(O)C(O)=C3C(=O)c4c(O)cccc4[C@@](C)(O)[C@H]3[C@H](O)[C@@H]12.O.O [Oxytetracycline dihydrate]	2.3	1.22	1.34	0.951	1.55
C1CNCCN1 [Piperazine]	1.01	1.27	1.51	1.38	
Cc1cc2c(cc1C(F)(F)F)N(C(=O)Nc1ccc(Oc3cccnc3C)nc1)CC2.Cl	1.03	1.4	0.768	0.554	
CC(C)=CCC/C(C)=C/CO [Geraniol]	1.1	1.26	1.15	1.75	
O=C(O)Cc1cc(I)c(Oc2cc(I)c(O)c(I)c2)c(I)c1 [Tetrac]	1.24	0.987	1.02	1.49	
CC(=O)S[C@@H]1CC2=CC(=O)CC[C@]2(C)[C@H]2CC[C@@]3(C)[C@@H](CC[C@@]34CCC(=O)O4)[C@H]12 [Spironolactone]	0.996	1.16	0.759	0.0625	
O=C(Nc1ccc([N+](=O)[O-])cc1Cl)c1cc(Cl)ccc1O [Niclosamide]	1.01	0.197			0.996
CCCCCCCCCCCCCCCC [Hexadecane]	1.02	1.02	1.19	1.33	
